Reference: PubChem BioAssay AID485314 (National Center for Advancing Translational Sciences (NCATS), 2010)
The whole screen tested about 340,000 compounds, of which about 4,500 (1.3%) were called active. The shares of active, inactive and inconclusive entries below differ from those in the screen. Calls follow the shape of the dose curve; as a rule, active = well fitted inhibition curve with a large enough effect; inconclusive = small, poorly fitted or top-dose-only effect, or another doubt; inactive = no such curve, though single readings can be large or run the other way. Potencies of inconclusive entries are doubtful fits and often do not repeat.

biological target: DNA polymerase beta (Homo sapiens) (UniProt P06746); assay: qHTS Assay for Inhibitors of DNA Polymerase Beta; conditions: Pol beta primer extension/strand displacement, fluorescence kinetic; activity change, negative = inhibition: at 114 µM (top of the series)
Outline: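 Reaction started by 50 nM substrate onto compound-treated Pol beta (10 nM, 15 min preincubation, room temperature); plates read at 0 min and 10 min. Normalized concentration-effect data fitted by four-parameter Hill equation.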
% is scaled to controls: 0 for no effect and ±100 for the full control effect; potency is read from the fitted curve at half-maximal effect.

Compound	activity change, negative = inhibition	Potency
CCOC(=O)CC1(NC(=O)C2CCC(=O)N(Cc3ccccc3F)C2)CCCCC1 (centres undefined)	inconclusive: -101% [inhibitor]	–
CC(=O)/C(=C/c1ccccc1)C(=O)Nc1ccccc1C	–	inactive
CCC(=O)Nc1cccc(C(=O)/C=C/c2ccccc2)c1	–	inactive
CCOP(=O)(c1ccccc1)C(O)c1ccc(F)cc1 (centres undefined)	–	inactive
Cc1cccc(-n2c(Cc3ccccc3)nnc2SCc2nc(-c3cccs3)no2)c1	–	inconclusive: 39.8 µM [inhibitor, single point]
Cc1cc(C)cc(NC(=S)N(Cc2ccc(Cl)cc2)Cc2ccc(C(=O)O)cc2)c1	–	inconclusive: 8.91 µM [inhibitor, partial curve, poor fit]
COCCNc1ccc(-c2nc(-c3ccco3)no2)cc1[N+](=O)[O-]	–	inconclusive: 25.1 µM [inhibitor, full curve]
CCOC(=O)c1ccc(N2C(=O)c3n[nH]c(-c4ccco4)c3C2c2ccc(O)c(OCC)c2)cc1 (centres undefined)	–	inconclusive: 0.199 µM [inhibitor, full curve, poor fit]
CSc1ccc(C(=O)C2CCCN(C(=O)c3ccsc3)C2)cc1 (centres undefined)	–	inconclusive: 89.1 µM [inhibitor, single point]
COC(=O)C1=C(C)N(CCCC(=O)O)C(=O)NC1c1cc2c(cc1[N+](=O)[O-])OCO2 (centres undefined)	–	active: 10 µM
O=C(O)CCn1c(=O)c2cccn2c2cccnc21	–	inconclusive: 89.1 µM [inhibitor, single point]
CCN=c1scc(C)n1/N=C/c1cc(Br)c(O)c(Br)c1	–	inconclusive: 44.7 µM [inhibitor, partial curve, poor fit]
COc1cccc(C(=O)Nc2ccc3c(C)cc(=O)oc3c2)c1	–	inconclusive: 7.08 µM [inhibitor, full curve, poor fit]
COc1ccc(NC(=O)CC2C(=O)NC3CCCCC3N2C(=O)c2ccc(F)cc2)cc1 (centres undefined)	–	inconclusive: 100 µM [inhibitor, partial curve, poor fit]
Cc1ccccc1/C(N)=N/OC(=O)c1cccs1	–	inactive
Cc1cccc2sc(N(Cc3cccnc3)C(=O)c3cccs3)nc12	–	inactive
O=C(CN1C(=O)C2CC=CCC2C1=O)NCC1COc2ccccc2O1 (centres undefined)	–	inactive
O=C(N/N=C/c1c(O)n(-c2ccccc2Cl)c(=O)c2ccccc12)C1COc2ccccc2O1 (centres undefined)	–	inactive
COc1ccc(NC(=O)CSc2nc3ccc(Nc4nc(N5CCOCC5)nc(N5CCOCC5)n4)cc3s2)cc1	inconclusive: -32.1% [inhibitor]	–
O=C(NCCCO)c1ccc2nc(-c3ccco3)c(-c3ccco3)nc2c1	–	active: 28.2 µM
CC(SCc1ccc(C(=O)O)o1)c1ccc(C(=O)O)o1 (centres undefined)	inconclusive: -37.1% [inhibitor]	–
COc1ccc(CCN2C(=O)CC(N3CCOCC3)C2=O)cc1 (centres undefined)	–	inconclusive: 28.2 µM [inhibitor, full curve]

Looked up above:
Potency with `COc1cccc(C(=O)Nc2ccc3c(C)cc(=O)oc3c2)c1` reads inconclusive: 7.08 µM [inhibitor, full curve, poor fit]
Potency with `CCOP(=O)(c1ccccc1)C(O)c1ccc(F)cc1` (centres undefined) reads inactive
activity change, negative = inhibition with `COc1ccc(NC(=O)CSc2nc3ccc(Nc4nc(N5CCOCC5)nc(N5CCOCC5)n4)cc3s2)cc1` reads inconclusive: -32.1% [inhibitor]

Following part.

Compound	activity change, negative = inhibition	Potency
COc1ccccc1NC(=O)c1sc2nc(C)c(C(=O)Nc3ccc(C)cc3C)c(-c3cccs3)c2c1N	–	inconclusive: 89.1 µM [inhibitor, single point]
CCn1c(SCC(=O)N/N=C/C=C/c2ccco2)nc2ccccc21	–	active: 22.4 µM
Cc1ccc(CNc2ncnc3c2cnn3-c2ccc(Cl)cc2)cc1	–	inconclusive: 22.4 µM [inhibitor, single point]
Cc1ccc(-c2onc3ccc(C=O)cc23)cc1	–	inconclusive: 0.1 µM [inhibitor, full curve, poor fit]
COc1ccc(-c2nn(-c3ccccc3)cc2CNCc2cccnc2)c(F)c1	–	inconclusive: 12.6 µM [inhibitor, partial curve]
CCOc1cc(/C=C2/NC(=O)N(CC(=O)Nc3cccc(C)c3)C2=O)ccc1OCC(N)=O	–	inconclusive: 39.8 µM [inhibitor, full curve, poor fit]
COc1ccccc1/C=C1\SC(=S)N(CC(=O)NC2CCS(=O)(=O)C2)C1=O (centres undefined)	–	inconclusive: 50.1 µM [inhibitor, single point]
CC(C)c1ccc(NC(=O)C[n+]2ccn(C3=C([O-])c4ccccc4C3=O)c2)cc1	–	inconclusive: 15.8 µM [inhibitor, full curve, poor fit]
CNc1ccc(-c2nc(-c3ccco3)no2)cc1[N+](=O)[O-]	–	inactive
Cn1c(=O)cc2c3c(c(N4CCCCC4)ccc31)C(=O)c1ccccc1-2	–	inconclusive: 70.8 µM [inhibitor, single point]
Cc1ccc2c(c1)N(C(=O)CCC(=O)NCc1cccc(Cl)c1)CC(C)O2 (centres undefined)	–	inconclusive: 0.891 µM [inhibitor, full curve]
C/C(=N\N1CCN(c2ccccc2)CC1)c1cccs1	inconclusive: -38% [inhibitor]	–
O=C1CSC(=S)N1/N=C/c1cc(Br)c(O)c(Br)c1	–	active: 20 µM
Cc1[nH]c2c(C)cccc2c(=O)c1CN1CCCCCC1	–	inactive
O=C(CSCc1cccc(Cl)c1)N1CCN(Cc2ccc3c(c2)OCO3)CC1	–	inconclusive: 89.1 µM [inhibitor, single point]
CCC(=O)N1CCN(c2ccc(Cl)cc2NC(=O)c2ccc([N+](=O)[O-])o2)CC1	–	inconclusive: 100 µM [inhibitor, single point]
CC1=NN(c2ccc(Cl)c(C(=O)O)c2)C(=O)C1	–	inconclusive: 50.1 µM [inhibitor, partial curve]
COC1CCCCC1Nc1cc(C)ccc1C (centres undefined)	–	inconclusive: 35.5 µM [inhibitor, partial curve]
CC(=O)OC(COc1cccc(C)c1)Cn1cnc2ccccc21 (centres undefined)	–	inconclusive: 1.58 µM [inhibitor, full curve]
COc1cc(NC(=O)Nc2cccc3cccnc23)cc(OC)c1OC	–	inconclusive: 89.1 µM [inhibitor, single point]
COC(=O)c1ccc(-n2c(C)cc(/C=N/Nc3nc(C)cc(=O)[nH]3)c2C)cc1	inconclusive: -37.9% [inhibitor]	–
CC(=O)Nc1ccc(SCC(=O)c2cc(C)n(Cc3cccs3)c2C)cc1	–	inconclusive: 39.8 µM [inhibitor, single point]
